US20250091911A1, “NANOFILTRATION SYSTEM AND METHOD INCLUDING PRETREATMENT WITH GREEN SORPTION MEDIA” (University of Central Florida Research Foundation, Inc., priority 2023, published 2025)

Key:
[1] = Control: nanofiltration without green sorption media pretreatment
Description: (§1) The water samples were collected from the same site of the C-23 canal during both the dry and wet seasons. However, only wet season water samples were used in the experiment. The water samples were analyzed for both long-chain (PFOA and PFOS) and short-chain (Perfluorobutanoic acid [PFBA] and Perfluorobutanesulfonic acid [PFBS]) PFAS following the modified EPA 537.1 method (Shoemaker & Tettenhorst, 2020). Through this method, an aliquot of a 250 mL water sample containing analytes and internal standards is extracted via solid phase extraction. The extracted analytes and internal standards are then eluted with methanol and ammonium hydroxide in methanol solvent. Then the eluted samples are dried with nitrogen and reconstituted to 1 mL volume with a buffer solution. The samples are then injected into a C18 liquid chromatography column, and the PFAS compounds are separated by a gradient of pure methanol and 20 mM ammonium acetate. Finally, the eluted compounds are detected, and their concentrations are measured via tandem mass spectrometry. The method detection limits (MDLs) for PFBA, PFBS, PFOA, and PFOS were 0.5 ng·L^−1, 2 ng·L^−1, 0.5 ng·L^−1, and 1 ng·L^−1, respectively. The concentration of calcium ion (Ca^2+) was analyzed at Eurofins Flowers's Chemical Laboratories (Altamonte Springs, Florida) following EPA method 6010D using inductively coupled plasma optical emission spectroscopy (MDL=0.096 mg·L^−1). Total organic carbon (TOC) and dissolved organic carbon (DOC) were measured using a TOC analyzer following EPA method 415.3.
(§2) Water samples collected from the C-23 canal were first fortified with PFOS and PFOA and then used as influents to the pretreatment column containing one of the two green sorption media. Note the water samples were not fortified with PFBA and PFBS. The green sorption media effluent served as the feedwater for the nanofiltration unit of the proposed water treatment system. The nanofiltration membrane unit without any green sorption media-based pretreatment served as the “control.” The integration of a green sorption media (CPS or ZIPGEM) with crossflow nanofiltration is herein referred to as a water treatment system, denoted as CPS-nanofiltration or ZIPGEM-nanofiltration. The CPS and ZIPGEM column influents and effluents and nanofiltration permeates were analyzed for both long-chain (PFOS and PFOA) and short-chain (PFBS and PFBA) PFAS. FIG. 3 presents the green sorption media-nanofiltration hybrid treatment scheme.
A bench-scale crossflow filtration setup was used in these experimental methods. The experimental setup consisted of a feed tank, a centrifugal pump, three CF042 membrane cells connected to pressure gauges, check valves, and flowmeters. A recirculating chiller was used for regulating the temperature at 20° C. […]

[2] = Fixed-bed column pretreatment of spiked C-23 canal water with CPS
Description: as §1, §2
C-23 canal water was stored in a walk-in refrigerator at […] after collection. For the pretreatment experiment, a total of 60 L of water was used as influents to the CPS and ZIPGEM columns. Although the raw water was spiked with 70 ng·L^−1 of PFOA and PFOS each, the short-chain PFAS (PFBA, PFBS) were at their indigenous concentrations. A peristaltic pump was used to deliver the water to the columns at a constant flowrate of 14 ml·min^−1. Three columns (triplicate) with 3 ft length and 4-inch diameter containing 2,600 ml of media were set up for each media, and all samples were analyzed in triplicate (FIG. 4). The fixed-bed column experiments were run for more than 48 h, and effluents were taken at different time intervals to be used as feedwaters for the nanofiltration treatment that followed. […] At least 5 L of column effluent were collected to be used as the nanofiltration feed, and the stated effluent at 9 h for CPS was collected from 0 h until 9 h, whereas effluent at 30 h for ZIPGEM was collected from 9 h until 30 h. The collected effluents from the column study were stored in a refrigerator until they were used for the nanofiltration experiment. FIG. 4 illustrates the experimental setup for the pretreatment CPS and ZIPGEM process.
The average removal efficiencies of each media pretreatment were calculated based on PFAS concentrations in the influents and effluents of triplicate columns, as disclosed in TABLE 5. […]

O=S(=O)(O)C(F)(F)C(F)(F)C(F)(F)C(F)(F)F [PFBS, Perfluorobutanesulfonic acid]
PFAS concentration, Control Effl. [1]: 3.90 ng/L
PFAS concentration, column effluent (Effl.) ([2]; CPS Col 1, effluent @ 9 h): 4.4 ng/L
PFAS concentration, column effluent (Effl.) ([2]; CPS Col 2, effluent @ 9 h): 4.0 ng/L
PFAS concentration, column effluent (Effl.) ([2]; CPS Col 3, effluent @ 9 h): 4.1 ng/L

O=C(O)C(F)(F)C(F)(F)C(F)(F)F [PFBA, Perfluorobutanoic acid]
PFAS concentration, Control Effl. [1]: 2.50 ng/L
PFAS concentration, column effluent (Effl.) ([2]; CPS Col 1, effluent @ 9 h): 6.0 ng/L
PFAS concentration, column effluent (Effl.) ([2]; CPS Col 2, effluent @ 9 h): 5.8 ng/L
PFAS concentration, column effluent (Effl.) ([2]; CPS Col 3, effluent @ 9 h): 5.4 ng/L

O=C(O)C(F)(F)C(F)(F)C(F)(F)C(F)(F)C(F)(F)C(F)(F)C(F)(F)F [PFOA, Perfluorooctanoic acid]
PFAS concentration, Control Effl. [1]: 12.67 ng/L
PFAS concentration, column effluent (Effl.) ([2]; CPS Col 1, effluent @ 9 h): 3.8 ng/L
PFAS concentration, column effluent (Effl.) ([2]; CPS Col 2, effluent @ 9 h): 14 ng/L
PFAS concentration, column effluent (Effl.) ([2]; CPS Col 3, effluent @ 9 h): 11 ng/L

O=S(=O)(O)C(F)(F)C(F)(F)C(F)(F)C(F)(F)C(F)(F)C(F)(F)C(F)(F)C(F)(F)F [PFOS, Perfluorooctanesulfonic acid]
PFAS concentration, Control Effl. [1]: 11.07 ng/L
PFAS concentration, column effluent (Effl.) ([2]; CPS Col 1, effluent @ 9 h): 0.0 ng/L
PFAS concentration, column effluent (Effl.) ([2]; CPS Col 2, effluent @ 9 h): 0.0 ng/L
PFAS concentration, column effluent (Effl.) ([2]; CPS Col 3, effluent @ 9 h): 0.0 ng/L
